Patent US20160177307
For some of these results: A negative result means that nothing was seen under these conditions. For at least one entry, the source does not settle the construct or the ends of the probe.

Chains of the proteins cited; added tags and fusions are not shown. Chains listed by the source or under a name are the forms on record and can include a tag or linker. Residues count along the entry.
UniProt P01127, 82-190: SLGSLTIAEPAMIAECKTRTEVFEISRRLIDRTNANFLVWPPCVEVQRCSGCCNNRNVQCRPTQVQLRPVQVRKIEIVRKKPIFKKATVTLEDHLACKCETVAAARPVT
VEGF-121 (Homo sapiens), one chain, as listed by the source: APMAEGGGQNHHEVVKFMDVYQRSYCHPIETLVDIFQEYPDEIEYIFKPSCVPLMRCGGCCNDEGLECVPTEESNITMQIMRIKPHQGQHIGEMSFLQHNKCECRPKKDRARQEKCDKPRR

Assays:
[1] = target: PDGF-BB (platelet-derived growth factor BB) (Homo sapiens) (UniProt P01127); assay: filter binding; conditions: purified recombinant protein, single-stranded DNA
VEGF-121 (Homo sapiens) = assay: filter binding; conditions: purified recombinant protein, protein details: R&D Systems, single-stranded DNA; for Kd: NB up to 100 nM; for binding result: NB

CGACAGCAGTATGCACATCT [5169-4_67]
Kd ([1]; C3 spacer at 9, NapdU at 11,13,19,21, NB up to 100 nM, label: 5'-32P, variant of 5169-4_26): > 100 nM

CCCTCCATCAGCCGTTCAAGTGCTTGTAGGATTTAAAGGAATTGGAGGA [4867-15_61]
Kd (VEGF-121 (Homo sapiens); P=Nap-dU, C3 spacer at 38): > 100 nM

CGACAGCATGTATGCACATCT [5169-4_88]
Kd ([1]; NapdU at P, 2'-OMe 1-4,6,7,10-12,14-18,20,21, NB): > 3.2 nM

AGCCGTTCAAGTGCTTGTAGGATTTAAATGGA [4867-31_87]
binding result (VEGF-121 (Homo sapiens); P=Nap-dU, 2'-OMe U23): no binding

CCCTCCATCAGCCGTTCAAGTGCTTGTAGGATTAAATGGAATTGGAGGA [4867-15_55]
Kd (VEGF-121 (Homo sapiens); P=Nap-dU, C3 spacer at 32): > 100 nM

CGACAGCATGTATGCACATCT [5169-4_91]
Kd ([1]; all positions 2'-OMe, Nap-mU at 9,11,13,19,21, NB, no binding up to 3.2 nM, label: 5'-32P, variant of 5169-4_26): > 3.2 nM

CCCTCCATCAGCCGTTCAAGTGCTTGTAGGATTTAATGGAATTGGAGGA [4867-15_58]
Kd (VEGF-121 (Homo sapiens); P=Nap-dU, C3 spacer at 35): > 100 nM

CGACAGCATGTATGCACATCTCCGTTCAAGTGCTTGTAGGATTTAAATGG [5169-4_101]
Kd ([1]; PDGF-4Heg-VEGF, NapdU, 2'-OMe): 0.0005 nM

CGACAGCATGTATGCACATCT [5169-4_120]
Kd ([1]; NapdU at P, 2'-OMe 2,12,15, NB): > 3.2 nM

CCGTTCAAGTGCTTGTAGGATTTAAATGGCGACAGCATGTATGCACATCT [5169-4_94]
Kd ([1]; VEGF-5Heg-PDGF, NapdU, 2'-OMe): 0.0005 nM

CGACAGCATTATGCACATCT [5169-4_68]
Kd ([1]; C3 spacer at 10, NapdU at 9,11,13,19,21, NB up to 100 nM, label: 5'-32P, variant of 5169-4_26): > 100 nM

AGCCGTTCAAGTGCTTGTAGGATTTAAATGGA [4867-31_71]
binding result (VEGF-121 (Homo sapiens); P=Nap-dU, 2'-OMe U7): no binding

AGCCGTTCAAGTGCTTGTAGGATTTAAATGGA [4867-31_80]
binding result (VEGF-121 (Homo sapiens); P=Nap-dU, 2'-OMe U16): no binding

CGACAGCATGTATGCACATCT [5169-4_56]
Kd ([1]; NapdU at 9,11,19,21, dT at 13, NB up to 100 nM, text names position 12, label: 5'-32P, variant of 5169-4_26): > 100 nM

AGCCGTTCAAGTGCTTGTAGGATTTAAATGGA [4867-31_79]
binding result (VEGF-121 (Homo sapiens); P=Nap-dU, 2'-OMe U15): no binding

CTTACGACTACGTTACACGCGTTTATA [4149-8_33]
Kd ([1]; all Z are BndU, rest DNA, SB18T, 37 C, label: 5'-32P, variant of 4149-8_2): > 1000 nM

CGACAGCATGTATGCACATCT [5169-4_144]
Kd ([1]; NapdU at 9,11,13,19, 2'-OMe at C1,C7,G14,A16,A18 and 2'-OMe-NapU21, SB18T buffer (5 mM MgCl2), 37 C, Zorbax partition, label: 5'-32P, variant of 5169-4_26): 0.0005 nM

CCCTCCATCAGCCGTTCAAGTGCTTGTAGGATTTAATGGAATTGGAGGA [4867-15_59]
Kd (VEGF-121 (Homo sapiens); P=Nap-dU, C3 spacer at 36): > 100 nM

CGACAGCATGTAGCACATCT [5169-4_71]
Kd ([1]; NapdU at P, C3 spacer at 13, NB): > 100 nM

CGACAGCATGTATGCACATCT [5169-4_146]
Kd ([1]; NapdU at 9,11,13,19, 2'-OMe at C1,C4,G6,C7,G14,C15,A16,C17,A18,C20 and 2'-OMe-NapU21, SB18T, 37 C, later tables give 15 and 26 pM with 3'-idT, label: 5'-32P, variant of 5169-4_26): 0.0006 nM

CGACAGCATGTATGCACATCT [5169-4_90]
Kd ([1]; NapdU at P, 2'-OMe 1-7,9-21, NB): > 3.2 nM

CCCTCCATCAGCCGTTCAAGTGCTTGTAGGATTAAATGGAATTGGAGGA [4867-15_57]
Kd (VEGF-121 (Homo sapiens); P=Nap-dU, C3 spacer at 34): > 100 nM

CAGCCGTTCAAGTGCTTGTAGGATTTAAAT [4867-31_46]
binding result (VEGF-121 (Homo sapiens); all P are NapdU, rest DNA, label: 5'-32P, variant of 4867-31_43): no binding

AGCCGTTCAAGTGCTTGTAGGATTTAAATGGA [4867-31_82]
binding result (VEGF-121 (Homo sapiens); P=Nap-dU, 2'-OMe U18): no binding

CCCTCCATCAGCCGTTCAAGTGCTTGTAGGATTAAATGGAATTGGAGGA [4867-15_56]
Kd (VEGF-121 (Homo sapiens); P=Nap-dU, C3 spacer at 33): > 100 nM

AGCCGTTCAAGTGCTTGTAGGATTTAAATGGA [4867-31_70]
binding result (VEGF-121 (Homo sapiens); P=Nap-dU, 2'-OMe U6): no binding

CGACAGCATGATGCACATCT [5169-4_69]
Kd ([1]; NapdU at P, C3 spacer at 11, NB): > 100 nM

AGCCGTTCAAGTGCTTGTAGGATTTAAATGGA [4867-31_88]
binding result (VEGF-121 (Homo sapiens); P=Nap-dU, 2'-OMe U24): no binding

AGCCGTTCAAGTGCTTGTAGGATTTAAATGGA [4867-31_65]
binding result (VEGF-121 (Homo sapiens); 2'-OMe A1, all P are NapdU, label: 5'-32P, variant of 4867-31_43): no binding

CGACAGCATGTATGCACACT [5169-4_77]
Kd ([1]; NapdU at P, C3 spacer at 19, NB): > 100 nM

CCCTCCATCAGCCGTTCAAGGCTTGTAGGATTTAAATGGAATTGGAGGA [4867-15_44]
Kd (VEGF-121 (Homo sapiens); P=Nap-dU, C3 spacer at 21): > 100 nM

AGCCGTTCAAGTGCTTGTAGGATTTAAATGGA [4867-31_93]
binding result (VEGF-121 (Homo sapiens); P=Nap-dU, 2'-OMe U29): no binding

CGACAGCATGTATGCACATCT [5169-4_119]
Kd ([1]; NapdU at P, 2'-OMe 2,4,17 as printed, NB, printed sequence same as 5169-4_118): > 3.2 nM

CCCTCCATCAGCCGTCAAGTGCTTGTAGGATTTAAATGGAATTGGAGGA [4867-15_39]
Kd (VEGF-121 (Homo sapiens); P=Nap-dU, C3 spacer at 16): > 100 nM

CCCTCCATCAGCCGTTCAAGTGCTTGTAGGATTTAATGGAATTGGAGGA [4867-15_60]
Kd (VEGF-121 (Homo sapiens); P=Nap-dU, C3 spacer at 37): > 100 nM

AGCCGTTCAAGTGCTTTAGGATTTAAATGGA [4867-31_102]
binding result (VEGF-121 (Homo sapiens); P=Nap-dU): no binding

CGCAGCATGTATGCACATCT [5169-4_61]
Kd ([1]; C3 spacer at 3, NapdU at 9,11,13,19,21, NB up to 100 nM, label: 5'-32P, variant of 5169-4_26): > 100 nM

CGACAGCATGTATGCACATCT [5169-4_121]
Kd ([1]; NapdU at P, 2'-OMe 2,10,12, NB): > 3.2 nM

CGACAGCATGTATGCACATCT [5169-4_58]
Kd ([1]; NapdU at 9,11,13,19, dT at 21, NB up to 100 nM, label: 5'-32P, variant of 5169-4_26): > 100 nM

CCCTCCATCAGCCGTTCAAGTGCTTGTAGGTTTAAATGGAATTGGAGGA [4867-15_54]
Kd (VEGF-121 (Homo sapiens); P=Nap-dU, C3 spacer at 31): > 100 nM

CGACAGCATGTATGCACATCT [5169-4_129]
Kd ([1]; NapdU at P, 2'-OMe 10,11,12, NB): > 3.2 nM

AGCCGTTCAAGTGCTTGTAGGATTTAAATGGA [4867-31_89]
binding result (VEGF-121 (Homo sapiens); P=Nap-dU, 2'-OMe U25): no binding

TTACGACTACGTTACACGCGTTTATA [4149-8_41]
Kd ([1]; BndU at 1,2,8,12,13,21,22,23,25, rest DNA, SB18T, 37 C, label: 5'-32P, variant of 4149-8_38): > 1000 nM

CCCTCCATCAGCCGTTCAAGTGCTGTAGGATTTAAATGGAATTGGAGGA [4867-15_48]
Kd (VEGF-121 (Homo sapiens); P=Nap-dU, C3 spacer at 25): > 100 nM

AGCCGTTCAAGTGCTTGTAGATTTAAATGGA [4867-31_103]
binding result (VEGF-121 (Homo sapiens); P=Nap-dU): no binding

CGACAGCATGTATGCACATCT [5169-4_89]
Kd ([1]; NapdU at P, 2'-OMe 1-4,6,7,10-21, NB): > 3.2 nM

AGCCGTTAAGTGCTTTAGATTTAAATGGA [4867-31_100]
binding result (VEGF-121 (Homo sapiens); P=Nap-dU, C3 spacer at 8, 17, 20): no binding

CGACAGCATGTATGCACATCT [5169-4_87]
Kd ([1]; NapdU at 9,13,19, 2'-OMe at C1,G2,C4,G6,C7,G10,A12,G14,C15,A16,C17,A18,C20 and 2'-OMe-NapU at 11,21, NB, no binding up to 3.2 nM, label: 5'-32P, variant of 5169-4_26): > 3.2 nM

CGACAGCATGTTGCACATCT [5169-4_70]
Kd ([1]; NapdU at P, C3 spacer at 12, NB): > 100 nM

AGCCGTTCAAGTGCTTGTAGGATTTAAATGGA [4867-31_69]
binding result (VEGF-121 (Homo sapiens); P=Nap-dU, 2'-OMe G5): no binding

CCCTCCATCAGCCGTTCAAGTGCTGTAGGATTTAAATGGAATTGGAGGA [4867-15_47]
Kd (VEGF-121 (Homo sapiens); P=Nap-dU, C3 spacer at 24): > 100 nM

CCCTCCATCAGCCGTTCAAGTGTTGTAGGATTTAAATGGAATTGGAGGA [4867-15_46]
Kd (VEGF-121 (Homo sapiens); P=Nap-dU, C3 spacer at 23): > 100 nM
